Reference: PubChem BioAssay AID504744 (Drosophila RNAi Screening Center, 2011)
In all, the deposit lists about 23,000 reagents; this is a random part of those with a known target gene and a result. In the full data, 98 (0.43%) were called active. 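Only hit calls are given; the phospho-dAkt signals, z-scores and hit direction were not deposited.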 Names joined by + are all predicted targets of the reagent.

- Test: 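Uncover factors, including feedback loops, that control dAkt activation in fly cells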 (primary screen)
- Cell system: Drosophila Kc167 cells
- Reagents: long dsRNA against Drosophila genes, 250 ng dsRNA per well of a 384-well plate
- Timing: 3 days of knock-down, then overnight serum-free starvation before stimulation
- Treatment: bovine insulin at 387 nM for 10 minutes after 12 h without serum
- Read-out: 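In-cell antibody fluorescence for phospho-dAkt in each well over DNA-dye signal, with log2 residuals expressed as z-scores adjusted for cell count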
- Hit rule: 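Under insulin, a gene counts as a hit if the average z-score of two replicates lies above 2.5 or below -2.5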

gene knocked down | DRSC id | outcome
CG18662 | DRSC02691 | inactive
MRG15 | DRSC16731 | inactive
pAbp | DRSC07659 | inactive
CG5180 | DRSC15731 | inactive
CG32119 | DRSC09248 | inactive
CG32119 | DRSC21462 | inactive
CG11635 + spaw | DRSC06075 | inactive
CG14013 | DRSC02344 | inactive
CG31195 | DRSC13440 | inactive
CG8468 | DRSC07190 | inactive
Cpr49Ac | DRSC07199 | inactive
seq | DRSC06863 | inactive
chn | DRSC06086 | inactive
CG16964 | DRSC02546 | inactive
CG5412 | DRSC15796 | inactive
CG33346 | DRSC22898 | inactive
CG15594 | DRSC12280 | inactive
CG31638 | DRSC02269 | inactive
CG31638 | DRSC03259 | inactive
uncNacbeta | DRSC00326 | inactive
Lim3 | DRSC02475 | inactive
Lim3 | DRSC03363 | inactive
Lim3 | DRSC22183 | inactive
Lim3 | DRSC22650 | inactive
CG4375 | DRSC00653 | inactive
Mlf | DRSC07472 | inactive
CG14711 + Zaf1 | DRSC14934 | inactive
CG11035 | DRSC14287 | inactive
sprt | DRSC07323 | inactive
Noc3 | DRSC12535 | inactive
TER94 | DRSC07560 | inactive
swa | DRSC18842 | inactive
Hmgs | DRSC06866 | inactive
gudu | DRSC02820 | inactive
Stlk | DRSC22687 | inactive
Ance-5 | DRSC04055 | inactive
Gcn2 | DRSC16678 | inactive
CG42562 | DRSC06453 | inactive
Ubqn | DRSC19581 | inactive
CG16789 | DRSC15155 | inactive
CG31267 | DRSC15748 | inactive
Sirt6 | DRSC16010 | inactive
2mit | DRSC14194 | inactive
2mit | DRSC15224 | inactive
Hsdl2 | DRSC15839 | inactive
CG32487 | DRSC21745 | inactive
CG7432 | DRSC16243 | inactive
Cht9 | DRSC04079 | inactive
Pex2 | DRSC10770 | inactive
Toll-9 | DRSC11776 | inactive
Cyp311a1 | DRSC20239 | inactive
CG13386 | DRSC02260 | inactive
Obp83a | DRSC12362 | inactive
CG1750 | DRSC15240 | inactive
spir | DRSC03619 | inactive
CG6800 | DRSC16119 | inactive
CG9886 | DRSC00732 | inactive
Set | DRSC16861 | inactive
Cpr72Eb | DRSC09870 | inactive
bdwf | DRSC15532 | inactive
CG10104 | DRSC05964 | inactive
Rpt1 | DRSC07542 | inactive
Noc1 | DRSC10921 | inactive
CG15023 | DRSC08477 | inactive
Act87E | DRSC22578 | inactive
Scgdelta | DRSC18544 | inactive
Rab9Db + Rab9D + Rab9E | DRSC17656 | inactive
COX4 | DRSC02091 | inactive
Jon99Ci | DRSC16860 | inactive
gsb | DRSC04692 | inactive
Pex14 | DRSC11754 | inactive
CG14787 | DRSC18606 | inactive
CG13376 | DRSC17901 | inactive
Pgant5 | DRSC03149 | inactive
caup | DRSC11334 | inactive
Ir10a | DRSC18891 | inactive
Ir10a | DRSC19478 | inactive
Ir10a | DRSC19479 | inactive
garz | DRSC07193 | active
olf413 | DRSC11543 | inactive
olf413 | DRSC11679 | inactive
olf413 | DRSC11721 | inactive
olf413 | DRSC11833 | inactive
CG8229 | DRSC07114 | inactive
CG13532 | DRSC04174 | inactive
TTLL3B | DRSC02133 | inactive
CG16952 | DRSC19759 | inactive
CG42241 (retired record) | DRSC04007 | inactive
Zw10 | DRSC18793 | inactive
Tspo | DRSC00533 | inactive
Pcd | DRSC16785 | inactive
ac | DRSC18734 | inactive
twz | DRSC04069 | inactive
Klp68D | DRSC11206 | inactive
muskelin | DRSC07273 | inactive
crp | DRSC03515 | inactive
retinin | DRSC09940 | inactive
Not11 | DRSC04204 | inactive
CG15260 | DRSC01977 | inactive
CG30273 | DRSC22059 | inactive
CG7656 | DRSC10900 | inactive
mthl4 | DRSC06998 | inactive
Hex-A | DRSC18259 | inactive
CG10472 | DRSC09730 | inactive
Tnks | DRSC14154 | inactive
jet | DRSC03116 | inactive
CG32830 (retired record) | DRSC01162 | inactive
CG18327 | DRSC06722 | inactive
CG14000 + bchs | DRSC02333 | inactive
spag | DRSC04717 | inactive
Golgin97 | DRSC06895 | inactive
CG31446 | DRSC13111 | inactive
CG8568 | DRSC20113 | inactive
Qsox3 | DRSC16096 | inactive
CG42553 | DRSC08356 | inactive
wac | DRSC08349 | inactive
CG12880 | DRSC14568 | inactive
CG17105 | DRSC02574 | inactive
CG10481 | DRSC02063 | inactive
mthl12 | DRSC12964 | inactive
Irk2 | DRSC15569 | inactive
Ras85D | DRSC16814 | inactive
Su(z)12 | DRSC11293 | inactive
CG13577 | DRSC04213 | inactive
Ube3a | DRSC10600 | inactive
CG2113 | DRSC08554 | inactive
Sym | DRSC12301 | inactive
sob | DRSC00838 | inactive
CG9003 | DRSC07317 | inactive
CG32240 | DRSC08093 | inactive
CG8202 | DRSC16396 | inactive
CG8272 | DRSC07134 | inactive
CG13717 (retired record) | DRSC08116 | inactive
CG13717 (retired record) | DRSC08324 | inactive
CG13717 (retired record) | DRSC08326 | inactive
CG13717 (retired record) | DRSC21337 | inactive
Nplp4 | DRSC00391 | inactive
Menl-2 + Menl-1 | DRSC07469 | inactive
Menl-2 + Menl-1 | DRSC07470 | inactive
tamo | DRSC04446 | inactive
CG33203 | DRSC14874 | inactive
CG33203 | DRSC14876 | inactive
CG33203 | DRSC14877 | inactive
CG9682 | DRSC16536 | inactive
ValRS-m | DRSC10535 | inactive
CG5892 | DRSC15910 | inactive
kek3 | DRSC03553 | inactive
kek3 | DRSC22830 | inactive
Jhbp16 | DRSC15039 | inactive
CG17364 | DRSC10269 | inactive
CG17364 | DRSC10270 | inactive
CG17364 | DRSC22689 | inactive
Mur29B | DRSC01018 | inactive
Mur29B | DRSC02376 | inactive
CG42580 | DRSC20397 | inactive
CG31689 | DRSC00734 | inactive
Alg9 | DRSC14407 | inactive
TotX | DRSC22206 | inactive
nxf4 | DRSC12548 | inactive
Tango6 | DRSC02671 | inactive
pasi2 | DRSC16380 | inactive
Tusp | DRSC15838 | inactive
Lsp1gamma | DRSC08672 | inactive
dod | DRSC20577 | inactive
tyf | DRSC18382 | inactive
CG15144 | DRSC02445 | inactive
veil | DRSC06892 | inactive
aPKC | DRSC05515 | inactive
aPKC | DRSC07639 | inactive
Taf11 | DRSC03448 | inactive
CG12869 | DRSC06208 | inactive
CG31804 | DRSC22728 | inactive
CG33007 (retired record) | DRSC21845 | inactive
Rx | DRSC03837 | inactive
Rx | DRSC04652 | inactive
qkr58E-3 | DRSC04711 | inactive
CG3687 | DRSC06850 | inactive
bib | DRSC03496 | inactive
CG8197 | DRSC07105 | inactive
zetaTry | DRSC07720 | inactive
mr | DRSC04332 | inactive
mr | DRSC22856 | inactive
CG7810 | DRSC03072 | inactive
mAChR-C | DRSC17890 | inactive
Mob4 | DRSC04993 | inactive
CheB74a | DRSC09503 | inactive
Srg3 | DRSC08984 | inactive
Srg3 | DRSC10178 | inactive
GXIVsPLA2 | DRSC10243 | inactive
Arpc4 | DRSC02917 | inactive
Arf4 | DRSC17195 | inactive
XRCC1 | DRSC18729 | inactive
lcs | DRSC20580 | inactive
Crtp | DRSC04604 | inactive
CG42663 | DRSC06158 | inactive
CG42663 | DRSC06404 | inactive
CG4955 | DRSC19927 | inactive
CG31122 | DRSC14787 | inactive
CG31122 | DRSC16286 | inactive
CG13251 | DRSC11699 | inactive

Copied from the list.
Entry of olf413 [DRSC11679] under “outcome”: inactive
Under “outcome”, sprt [DRSC07323] shows inactive
For “outcome”, spir [DRSC03619] has inactive
Value for Hmgs [DRSC06866] under “outcome”: inactive
Entry for Hex-A [DRSC18259] in “outcome”: inactive
Result of Menl-2 + Menl-1 [DRSC07469] in “outcome”: inactive
